Paper PMC9457596
The exact form of at least one protein or probe is not confirmed.

Amino acid sequences for entries named in this document (tags omitted). Residues count along the entry.
UniProt P09651, 2-196: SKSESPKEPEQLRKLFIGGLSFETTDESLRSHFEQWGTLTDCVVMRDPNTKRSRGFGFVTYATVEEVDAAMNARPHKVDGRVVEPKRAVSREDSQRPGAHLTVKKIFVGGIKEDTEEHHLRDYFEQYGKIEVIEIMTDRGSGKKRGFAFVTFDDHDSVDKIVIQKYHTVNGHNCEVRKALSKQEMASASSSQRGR

Biological target: hnRNP A1 (UniProt P09651)
Assay: EMSA
Conditions: 150 mM KCl, 50 mM L-Arg, 50 mM L-Glu, 1.5 mM MgCl2, 0.2 mM EDTA, 0.05% BME, 20 mM Na2HPO4, pH 7.0, 4 C, 30 min; 0.5 uM RNA, 0.1-60 uM protein (Kd) or 60 uM (screen); recombinant protein; label: 5'-6-FAM

Row | Sequence | Kd
1 | UAGGAUAGGAUAGGAUAGGA [C4] | 760 nM
2 | UAGGUUAGGUUAGGUUAGGU [D4] | 770 nM
